Assay [1] deals with T1, GFP-tagged CD151 (human) (UniProt P48509).
T1 sequence: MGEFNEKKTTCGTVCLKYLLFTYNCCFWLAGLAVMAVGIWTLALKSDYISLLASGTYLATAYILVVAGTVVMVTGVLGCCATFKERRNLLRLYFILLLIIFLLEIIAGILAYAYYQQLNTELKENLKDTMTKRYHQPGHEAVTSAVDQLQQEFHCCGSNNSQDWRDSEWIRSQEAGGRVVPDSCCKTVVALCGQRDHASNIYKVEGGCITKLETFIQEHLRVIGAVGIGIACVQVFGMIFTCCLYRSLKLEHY
Nature of the assay: co-IP; BJAB cells transiently transfected with CD151-GFP and ALFA-tagged ITGB2, lysed in 1% IGEPAL CA-630; IP by GFP or by the ALFA tag (selector ST beads); western blot for GFP-tag or ALFA-tag.

By UniProt entry, the sequences of proteins in these tests, tags left out. Residues count along the entry.
UniProt P05107, residues 23-769: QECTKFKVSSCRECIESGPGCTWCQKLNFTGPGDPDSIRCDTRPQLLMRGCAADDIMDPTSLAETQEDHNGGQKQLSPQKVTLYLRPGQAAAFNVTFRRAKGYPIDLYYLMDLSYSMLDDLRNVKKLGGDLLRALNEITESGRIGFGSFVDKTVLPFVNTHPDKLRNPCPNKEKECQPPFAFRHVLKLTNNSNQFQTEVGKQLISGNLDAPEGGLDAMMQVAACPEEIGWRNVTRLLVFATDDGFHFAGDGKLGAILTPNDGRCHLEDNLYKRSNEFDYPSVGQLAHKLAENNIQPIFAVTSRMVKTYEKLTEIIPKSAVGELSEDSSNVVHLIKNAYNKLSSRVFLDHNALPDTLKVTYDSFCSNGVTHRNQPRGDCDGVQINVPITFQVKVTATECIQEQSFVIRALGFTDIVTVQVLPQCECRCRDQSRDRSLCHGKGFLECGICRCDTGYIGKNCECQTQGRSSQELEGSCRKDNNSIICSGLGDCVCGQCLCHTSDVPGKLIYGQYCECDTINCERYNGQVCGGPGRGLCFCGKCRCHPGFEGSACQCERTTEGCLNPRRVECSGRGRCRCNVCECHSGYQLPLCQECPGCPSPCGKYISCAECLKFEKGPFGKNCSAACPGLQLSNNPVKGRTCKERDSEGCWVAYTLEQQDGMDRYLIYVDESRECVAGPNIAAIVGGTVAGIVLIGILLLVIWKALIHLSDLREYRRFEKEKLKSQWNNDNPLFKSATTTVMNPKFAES

Assay [2] addresses T1, GFP-tagged CD151 (human). In words: co-IP; GFP-Trap magnetic agarose on lysates of BJAB CD151-GFP cells (BJAB WT as control); 1% IGEPAL, 25 mM Tris-HCl pH 7.5, 150 mM NaCl, 5 mM MgCl2, 2 h at 4°C; blot for endogenous ITGB2; also with lysis buffer supplemented with Ca2+/Mg2+, Mg2+ or EDTA.
For the next assay, the target named is ALFA-tagged ITGB2 (UniProt P05107). Nature of the assay: co-IP; BJAB cells transiently transfected with CD151-GFP and ALFA-tagged ITGB2, lysed in 1% IGEPAL CA-630; IP by GFP or by the ALFA tag (selector ST beads); western blot for GFP-tag or ALFA-tag. In general terms: Immunoblotting shows a protein as a band on a membrane.

These are yes or no findings as the source states them, for the method shown. In cells and extracts the contact can be indirect. Some entries that bind do so weakly or less than the wild type. Tags and fused reporters may be left off the sequences shown.

Take “ALFA-tagged ITGB2 (from UniProt P05107 23-769)”: the binding result in the assay with GFP-tagged CD151 (human) [1] was “binds”.
As to “endogenous integrin beta 2 (ITGB2) (from UniProt P05107 23-769)”, the binding entry with GFP-tagged CD151 (human) [2] is listed as “binds”.

B1: GFP-tagged CD151 (protein, UniProt P48509 1-253)
chain: MGEFNEKKTTCGTVCLKYLLFTYNCCFWLAGLAVMAVGIWTLALKSDYISLLASGTYLATAYILVVAGTVVMVTGVLGCCATFKERRNLLRLYFILLLIIFLLEIIAGILAYAYYQQLNTELKENLKDTMTKRYHQPGHEAVTSAVDQLQQEFHCCGSNNSQDWRDSEWIRSQEAGGRVVPDSCCKTVVALCGQRDHASNIYKVEGGCITKLETFIQEHLRVIGAVGIGIACVQVFGMIFTCCLYRSLKLEHY
On to B1, for which, in the assay with ALFA-tagged ITGB2, the binding result is “binds”.

Values taken from paper PMC12137850.
